PubChem BioAssay AID1159578, Peter MacCallum Cancer Centre | 2015
Screen: 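Genome-wide hunt for genes controlling movement of lymphatic endothelial cells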 (primary screen). System: human lymphatic endothelial cells. Reagent: siRNA pool against human genes, 40 nM. Duration: 48 h after transfection. Measured: 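High-content imaging of dye-stained cells in a scratch assay measures filled wound area and nuclei per well; duplicate means given as ratio to mock and robust z-score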. Scale: migration robust z-score: higher = faster migration into the scratch; nuclei per well: higher = more cells in the well. Active means: 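Pools averaging fewer than 3300 nuclei are never called; remaining pools count as changed when migration robust z lies outside -2 to 2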. Meaning of the calls: active = migration changed; inactive = no migration change, or too few cells.
This is an unselected part of about 18,000 reagents. About 1,030 of all reagents (5.7%) count as active. 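Inactive calls also include pools with fewer than 3300 nuclei, whose migration was not assessed.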 Raw values are not corrected between plates. Not all columns of the deposit are shown.

Against TKFC, the values are migration robust z-score -0.13; nuclei per well, duplicate mean 5315; inactive.
Against LAMP2, the entry reads migration robust z-score 0.26; nuclei per well, duplicate mean 6768; inactive.
After knock-down of ARHGAP32, the screen gave migration robust z-score 0.88; nuclei per well, duplicate mean 5832; inactive.
Knock-down of DNASE2B gave: migration robust z-score 0.24; nuclei per well, duplicate mean 6107; inactive.
PIGQ gave migration robust z-score -0.24; nuclei per well, duplicate mean 5560; inactive.
Knock-down of PIK3CB gave: migration robust z-score -1.4; nuclei per well, duplicate mean 4495; inactive.
For PTGDS the deposit lists migration robust z-score -2.18; nuclei per well, duplicate mean 4465; active.
Knock-down of PWWP3B resulted in: migration robust z-score 0.22; nuclei per well, duplicate mean 6114; inactive.
For TMEM94 the deposit lists migration robust z-score 0.26; nuclei per well, duplicate mean 4464; inactive.
PCNP scored migration robust z-score 1.35; nuclei per well, duplicate mean 6011; inactive.
For GATAD1 the deposit lists migration robust z-score 0.23; nuclei per well, duplicate mean 6525; inactive.
Silencing of COXFA4L3 came out at: migration robust z-score -0.7; nuclei per well, duplicate mean 5720; inactive.
C4B scored migration robust z-score -0.64; nuclei per well, duplicate mean 5571; inactive.
ERCC5 scored migration robust z-score -1.97; nuclei per well, duplicate mean 5524; inactive.
